Assay results as given in the supplement of paper PMC12823440, “Inhibitors supercharge kinase turnover through native proteolytic circuits” (Nature, 2025).
Counter-ions that a name gives are not always drawn. This is one part of the list. The calls rarely recur for the same compound in another form.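 Kinases, fused to nanoluciferase, were expressed in K562 cells; luminescence was measured every 4 h from 2 to 18 h as percent of control (DMSO = 100%, positive control = 0%). A time point is decreased if signal falls significantly (2 sigma). Hits were called by the authors by a rule that is not shown; the count of time points alone does not decide it.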

Sequences of proteins named here, by UniProt entry; tags and fusion partners are left off. A change or cut given only in a name is not applied to a line headed by its entry.
UniProt P36888, whole entry: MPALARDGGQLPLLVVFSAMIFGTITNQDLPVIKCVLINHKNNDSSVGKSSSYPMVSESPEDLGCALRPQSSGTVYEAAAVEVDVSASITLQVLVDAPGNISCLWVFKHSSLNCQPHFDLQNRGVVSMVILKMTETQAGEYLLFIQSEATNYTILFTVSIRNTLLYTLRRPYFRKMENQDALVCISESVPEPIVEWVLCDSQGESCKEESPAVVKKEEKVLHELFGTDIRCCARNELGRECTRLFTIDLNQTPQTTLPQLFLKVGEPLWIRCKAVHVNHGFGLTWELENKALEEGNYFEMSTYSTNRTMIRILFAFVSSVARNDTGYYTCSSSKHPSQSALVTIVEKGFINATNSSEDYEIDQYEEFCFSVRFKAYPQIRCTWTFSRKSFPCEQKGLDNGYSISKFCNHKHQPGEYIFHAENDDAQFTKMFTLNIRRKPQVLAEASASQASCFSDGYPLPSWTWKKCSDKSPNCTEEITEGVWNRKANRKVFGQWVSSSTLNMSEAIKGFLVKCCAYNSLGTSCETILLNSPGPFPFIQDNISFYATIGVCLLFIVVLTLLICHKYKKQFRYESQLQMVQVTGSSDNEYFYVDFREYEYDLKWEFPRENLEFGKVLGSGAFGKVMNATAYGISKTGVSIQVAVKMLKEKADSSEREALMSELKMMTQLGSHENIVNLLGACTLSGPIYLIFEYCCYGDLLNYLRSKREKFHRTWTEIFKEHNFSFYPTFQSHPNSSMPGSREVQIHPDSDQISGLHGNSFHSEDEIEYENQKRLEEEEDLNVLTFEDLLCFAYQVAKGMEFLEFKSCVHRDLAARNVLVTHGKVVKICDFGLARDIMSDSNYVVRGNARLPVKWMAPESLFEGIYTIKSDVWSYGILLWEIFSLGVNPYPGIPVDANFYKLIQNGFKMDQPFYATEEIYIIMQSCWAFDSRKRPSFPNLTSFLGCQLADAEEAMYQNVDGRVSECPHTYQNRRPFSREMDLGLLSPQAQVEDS
UniProt P06241, whole entry, looked up: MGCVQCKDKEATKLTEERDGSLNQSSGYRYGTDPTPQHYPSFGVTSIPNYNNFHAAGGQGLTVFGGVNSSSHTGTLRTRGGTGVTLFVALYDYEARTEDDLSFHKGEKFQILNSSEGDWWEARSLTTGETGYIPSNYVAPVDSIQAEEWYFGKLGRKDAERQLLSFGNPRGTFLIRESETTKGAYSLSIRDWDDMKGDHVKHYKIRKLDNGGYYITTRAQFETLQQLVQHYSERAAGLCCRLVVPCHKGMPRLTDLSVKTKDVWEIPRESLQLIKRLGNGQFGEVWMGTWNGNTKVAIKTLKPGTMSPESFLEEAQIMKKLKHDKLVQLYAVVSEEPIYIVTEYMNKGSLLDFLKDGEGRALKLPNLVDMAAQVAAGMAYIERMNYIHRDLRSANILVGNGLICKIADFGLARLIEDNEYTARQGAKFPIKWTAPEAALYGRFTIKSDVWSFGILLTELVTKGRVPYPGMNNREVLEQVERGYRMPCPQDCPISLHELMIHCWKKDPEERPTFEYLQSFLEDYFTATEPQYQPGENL
UniProt P49840: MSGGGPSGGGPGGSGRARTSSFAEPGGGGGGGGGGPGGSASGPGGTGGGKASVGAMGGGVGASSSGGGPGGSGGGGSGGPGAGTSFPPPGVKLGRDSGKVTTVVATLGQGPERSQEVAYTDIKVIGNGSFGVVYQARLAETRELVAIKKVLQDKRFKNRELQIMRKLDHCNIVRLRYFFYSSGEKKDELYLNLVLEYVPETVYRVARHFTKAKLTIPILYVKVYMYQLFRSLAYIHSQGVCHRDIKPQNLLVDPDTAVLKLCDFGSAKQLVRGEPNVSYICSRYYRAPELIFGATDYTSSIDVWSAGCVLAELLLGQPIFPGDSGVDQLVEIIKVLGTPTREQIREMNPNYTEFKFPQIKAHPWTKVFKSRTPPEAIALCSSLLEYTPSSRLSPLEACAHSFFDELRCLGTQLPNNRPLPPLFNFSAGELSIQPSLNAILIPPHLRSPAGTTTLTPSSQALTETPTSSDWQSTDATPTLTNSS
UniProt Q9Y616: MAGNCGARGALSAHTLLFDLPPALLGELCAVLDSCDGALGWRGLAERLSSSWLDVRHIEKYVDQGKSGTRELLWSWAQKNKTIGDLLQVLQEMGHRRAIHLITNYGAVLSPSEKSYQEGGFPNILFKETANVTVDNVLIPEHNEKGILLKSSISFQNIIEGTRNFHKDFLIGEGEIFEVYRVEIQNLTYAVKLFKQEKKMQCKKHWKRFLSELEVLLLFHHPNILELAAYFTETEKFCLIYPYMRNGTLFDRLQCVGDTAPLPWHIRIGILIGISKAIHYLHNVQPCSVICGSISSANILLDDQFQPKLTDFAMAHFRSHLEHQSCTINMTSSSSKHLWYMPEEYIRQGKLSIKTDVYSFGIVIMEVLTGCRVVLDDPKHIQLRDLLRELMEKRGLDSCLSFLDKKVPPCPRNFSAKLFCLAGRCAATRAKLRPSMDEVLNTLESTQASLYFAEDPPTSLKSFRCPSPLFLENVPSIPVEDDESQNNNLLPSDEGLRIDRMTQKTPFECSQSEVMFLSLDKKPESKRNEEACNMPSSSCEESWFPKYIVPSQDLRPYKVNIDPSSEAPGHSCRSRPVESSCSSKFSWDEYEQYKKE
UniProt P23458: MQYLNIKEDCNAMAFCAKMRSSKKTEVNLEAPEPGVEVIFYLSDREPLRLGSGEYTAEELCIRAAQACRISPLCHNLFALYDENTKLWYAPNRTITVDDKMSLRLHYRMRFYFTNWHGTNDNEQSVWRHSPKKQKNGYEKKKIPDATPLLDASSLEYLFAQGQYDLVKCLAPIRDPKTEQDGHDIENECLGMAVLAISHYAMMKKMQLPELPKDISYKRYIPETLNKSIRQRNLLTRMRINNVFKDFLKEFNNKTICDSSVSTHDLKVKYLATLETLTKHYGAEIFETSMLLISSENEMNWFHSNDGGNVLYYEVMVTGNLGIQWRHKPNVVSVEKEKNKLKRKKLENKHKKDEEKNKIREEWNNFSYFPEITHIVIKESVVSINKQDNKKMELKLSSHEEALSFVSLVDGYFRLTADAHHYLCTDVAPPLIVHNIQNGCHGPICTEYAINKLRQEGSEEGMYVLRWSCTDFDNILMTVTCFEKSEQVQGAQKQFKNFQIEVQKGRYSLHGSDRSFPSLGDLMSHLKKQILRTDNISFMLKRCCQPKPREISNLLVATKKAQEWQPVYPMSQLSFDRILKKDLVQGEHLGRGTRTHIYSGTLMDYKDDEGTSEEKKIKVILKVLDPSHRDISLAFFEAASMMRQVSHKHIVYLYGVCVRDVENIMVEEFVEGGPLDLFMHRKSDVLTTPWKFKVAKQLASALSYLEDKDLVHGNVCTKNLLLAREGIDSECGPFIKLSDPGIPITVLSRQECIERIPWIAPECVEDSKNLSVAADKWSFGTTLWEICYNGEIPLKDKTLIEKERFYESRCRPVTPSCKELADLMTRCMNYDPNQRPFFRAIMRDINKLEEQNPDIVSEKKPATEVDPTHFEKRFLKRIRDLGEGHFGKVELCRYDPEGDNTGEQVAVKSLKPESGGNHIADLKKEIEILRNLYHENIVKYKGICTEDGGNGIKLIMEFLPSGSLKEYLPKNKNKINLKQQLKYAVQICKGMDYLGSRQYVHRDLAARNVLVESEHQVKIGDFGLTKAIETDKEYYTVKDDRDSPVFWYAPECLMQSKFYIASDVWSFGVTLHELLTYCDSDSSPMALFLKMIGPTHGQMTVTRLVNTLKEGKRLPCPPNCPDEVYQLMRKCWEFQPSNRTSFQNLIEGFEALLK
UniProt P06239: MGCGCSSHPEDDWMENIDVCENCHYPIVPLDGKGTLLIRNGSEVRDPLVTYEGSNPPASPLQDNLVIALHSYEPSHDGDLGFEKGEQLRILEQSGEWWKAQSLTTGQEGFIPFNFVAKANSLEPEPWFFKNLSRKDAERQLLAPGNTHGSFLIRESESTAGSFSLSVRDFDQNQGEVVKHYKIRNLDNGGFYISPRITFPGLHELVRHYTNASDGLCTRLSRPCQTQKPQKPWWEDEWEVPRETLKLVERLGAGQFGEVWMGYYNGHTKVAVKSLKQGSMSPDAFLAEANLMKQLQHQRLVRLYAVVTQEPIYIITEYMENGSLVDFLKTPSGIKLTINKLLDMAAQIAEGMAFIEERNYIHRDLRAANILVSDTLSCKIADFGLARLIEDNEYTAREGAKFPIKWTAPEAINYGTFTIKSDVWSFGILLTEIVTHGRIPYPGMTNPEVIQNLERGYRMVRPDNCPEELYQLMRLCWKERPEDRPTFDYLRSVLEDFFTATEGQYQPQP
UniProt P53667: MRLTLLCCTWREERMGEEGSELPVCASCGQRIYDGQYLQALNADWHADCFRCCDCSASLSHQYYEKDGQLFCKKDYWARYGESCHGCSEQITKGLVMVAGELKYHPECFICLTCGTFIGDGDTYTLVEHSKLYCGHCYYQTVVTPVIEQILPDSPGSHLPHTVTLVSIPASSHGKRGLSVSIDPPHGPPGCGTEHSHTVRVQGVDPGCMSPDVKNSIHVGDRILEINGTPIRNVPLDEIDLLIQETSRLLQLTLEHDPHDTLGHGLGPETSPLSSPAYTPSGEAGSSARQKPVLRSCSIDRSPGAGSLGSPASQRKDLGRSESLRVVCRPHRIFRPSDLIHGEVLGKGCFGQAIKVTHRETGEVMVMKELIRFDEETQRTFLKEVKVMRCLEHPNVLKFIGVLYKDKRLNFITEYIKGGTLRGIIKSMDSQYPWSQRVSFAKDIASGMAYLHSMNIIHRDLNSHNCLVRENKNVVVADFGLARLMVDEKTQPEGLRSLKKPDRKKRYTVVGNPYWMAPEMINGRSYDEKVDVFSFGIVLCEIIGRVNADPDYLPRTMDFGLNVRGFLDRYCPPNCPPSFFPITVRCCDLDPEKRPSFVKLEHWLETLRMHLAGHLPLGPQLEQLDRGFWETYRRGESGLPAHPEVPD
UniProt P53671: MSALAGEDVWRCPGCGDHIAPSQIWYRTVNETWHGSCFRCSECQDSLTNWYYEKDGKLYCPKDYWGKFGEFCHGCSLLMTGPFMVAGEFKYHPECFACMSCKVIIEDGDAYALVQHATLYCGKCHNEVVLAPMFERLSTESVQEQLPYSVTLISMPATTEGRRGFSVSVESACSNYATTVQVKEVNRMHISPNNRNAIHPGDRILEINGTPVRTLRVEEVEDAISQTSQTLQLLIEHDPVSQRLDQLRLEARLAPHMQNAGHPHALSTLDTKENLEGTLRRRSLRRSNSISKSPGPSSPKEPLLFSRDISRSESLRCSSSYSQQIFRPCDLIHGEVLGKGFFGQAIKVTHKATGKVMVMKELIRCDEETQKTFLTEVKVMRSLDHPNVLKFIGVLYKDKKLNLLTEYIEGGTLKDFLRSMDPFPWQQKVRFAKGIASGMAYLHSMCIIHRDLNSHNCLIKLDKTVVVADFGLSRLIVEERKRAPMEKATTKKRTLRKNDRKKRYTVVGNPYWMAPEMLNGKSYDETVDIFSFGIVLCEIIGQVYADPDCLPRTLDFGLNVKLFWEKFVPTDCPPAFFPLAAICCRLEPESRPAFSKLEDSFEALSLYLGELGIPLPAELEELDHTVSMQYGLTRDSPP

How the values were obtained:
Experiment in all cases: number of time points (of 5) at which kinase-Nluc abundance scored as decreased, DMSO-normalised (count); higher = more persistent destabilization
Conditions in all cases: K562; 2-18 h
[1] = target: FLT3 (UniProt P36888)
[2] = target: FYN (UniProt P06241)
[3] = target: GSK3A (UniProt P49840)
[4] = target: HER2 (UniProt P04626)
[5] = target: INSRR (UniProt P14616)
[6] = target: IRAK3 (UniProt Q9Y616)
[7] = target: JAK1 (UniProt P23458)
[8] = target: LCK (UniProt P06239)
[9] = target: LIMK1 (UniProt P53667)
[10] = target: LIMK2 (UniProt P53671)

Row | SMILES | number of time points [1] | number of time points [2] | number of time points [3] | number of time points [4] | number of time points [5] | number of time points [6] | number of time points [7] | number of time points [8] | number of time points [9] | number of time points [10]
1 | CCOC(=O)c1c2c3c(cccc3[nH]c1=O)C(=O)c1ccccc1-2 (10 µM) | 0 | 0 | 0 | 0 | 0 | 0 | 0 | 0 | 0 | 0
2 | Cc1cc(Nc2nc(N[C@@H](C)c3ncc(F)cn3)ncc2Cl)[nH]n1 (10 µM) | 0 | 0 | 0 | 0 | 0 | 0 | 0 | 0 | 0 | 0
3 | COc1c(C)c(C(=O)c2ccc(N)c(C(=O)O)c2)n2ccccc12 (10 µM) | 0 | 0 | 0 | 0 | 0 | 0 | 0 | 0 | 0 | 0
4 | CCCC(=O)Nc1nc2c(ncn2[C@@H]2O[C@@H]3COP(=O)(O)O[C@H]3[C@H]2OC(=O)CCC)c(=O)[nH]1 [Dibutyryl-cGMP (sodium)] (10 µM) | 0 | 0 | 0 | 0 | 0 | 0 | 0 | 0 | 0 | 0
5 | [O-][n+]1cccc(-c2nc3c(Cl)cccc3cc2[C@@H](Nc2ncnc3cccnc23)C(F)(F)F)c1 [Seletalisib] (10 µM) | 0 | 0 | 0 | 0 | 0 | 0 | 0 | 0 | 0 | 0
6 | NS(=O)(=O)c1ccc(N2N=C(c3ccccc3)CC2c2ccccc2)cc1 (stereo not given) (10 µM) | 0 | 0 | 0 | 0 | 0 | 0 | 0 | 0 | 0 | 0
7 | CC(=O)NCCc1c[nH]c2ccc(O)cc12 [N-Acetyl-5-hydroxytryptamine] (10 µM) | 0 | 0 | 0 | 0 | 0 | 0 | 0 | 0 | 0 | 0
8 | O=C1NC(=O)C(c2cn(-c3ccccc3)nc2-c2ccc(F)cc2)N1 (stereo not given) (10 µM) | 0 | 0 | 0 | 0 | 1 | 0 | 0 | 0 | 0 | 0
9 | Cn1ncc(Cl)c1-c1cc(C(=O)N[C@H](CN)Cc2ccc(F)c(F)c2)sc1Cl (10 µM) | 0 | 0 | 0 | 0 | 2 | 0 | 0 | 0 | 4 | 2
10 | NC(=O)c1ccc(-c2cnn3ccc(NCc4cccnc4)nc23)cc1 (2.5 µM) | 0 | 0 | 0 | 0 | 0 | 0 | 0 | 0 | 0 | 0
11 | Nc1cc(C(F)(F)F)c(-c2nc(N3CCOCC3)nc(N3CCOCC3)n2)cn1 [Bimiralisib] (10 µM) | 2 | 3 | 0 | 2 | 0 | 2 | 0 | 0 | 4 | 1
12 | COc1cc(N2CCC(O)CC2)ccc1Nc1cc(Nc2ccccc2S(=O)(=O)C(C)C)c2cc[nH]c2n1 (10 µM) | 0 | 0 | 0 | 0 | 0 | 0 | 0 | 0 | 0 | 0
13 | C=CC(=O)Nc1cccc(Oc2nc(Nc3ccc(N4CCN(C)CC4)cc3)nc3ccoc23)c1 [Poseltinib] (10 µM) | 0 | 0 | 0 | 4 | 0 | 0 | 0 | 0 | 0 | 0
14 | CNC(=O)c1cc(Oc2ccc3nc(N[C@@H]4CCCC[C@H]4O)sc3c2)ccn1 (10 µM) | 0 | 0 | 0 | 0 | 0 | 0 | 0 | 0 | 0 | 0
15 | CCCCOc1ccc(CC/C=C2\SC(=O)N(CCN)C2=O)cc1 [K145 (hydrochloride)] (2.5 µM) | 0 | 0 | 0 | 0 | 0 | 0 | 0 | 0 | 0 | 0
16 | CC[C@@H]1C(=O)N(C)c2cnc(Nc3ccc(C(=O)N[C@H]4CC[C@H](N5CCN(CC6CC6)CC5)CC4)cc3OC)nc2N1C(C)C [Volasertib] (2.5 µM) | 0 | 0 | 0 | 0 | 1 | 0 | 0 | 0 | 0 | 0
17 | O=C1NC(=O)C(c2cnc3ccccn23)=C1c1cn2c3c(cc(F)cc13)CN(C(=O)N1CCCCC1)CC2 (2.5 µM) | 0 | 0 | 0 | 0 | 0 | 0 | 0 | 0 | 0 | 0
18 | C[C@@H]1COCCN1c1cc(=O)n2c(n1)N(Cc1cncc(Cl)c1)[C@H](C(F)(F)F)CC2 (10 µM) | 0 | 3 | 0 | 0 | 0 | 0 | 1 | 0 | 0 | 0
19 | CC(=O)Nc1nc(C)c(-c2nc(N3CCCC(O)C3)no2)s1 (stereo not given) (10 µM) | 0 | 0 | 0 | 0 | 0 | 0 | 0 | 0 | 0 | 0
20 | CC(C)c1cc(/C=C(\C#N)C(N)=O)cc(C(C)C)c1O (10 µM) | 0 | 0 | 0 | 0 | 0 | 0 | 0 | 0 | 0 | 0
21 | COC1(C(=O)N[C@@H](C)c2ccc(-n3cc(F)cn3)nc2)CCC(c2nc(C)cc(Nc3cc(C)[nH]n3)n2)CC1 (stereo partly drawn) [trans-Pralsetinib] (2.5 µM) | 0 | 0 | 0 | 0 | 0 | 0 | 0 | 0 | 0 | 0
22 | COc1cc(N2CCC(N3CCN(C)CC3)CC2)ccc1Nc1nc2c(c(Nc3ccccc3S(=O)(=O)NC(C)C)n1)CCN2 [Conteltinib] (10 µM) | 0 | 0 | 0 | 0 | 0 | 0 | 0 | 0 | 0 | 0
23 | O=C1NCCCc2c1oc1ccc(O)cc21 (10 µM) | 0 | 0 | 0 | 0 | 0 | 0 | 0 | 0 | 0 | 0

Row | SMILES | number of time points [1] | number of time points [2] | number of time points [3] | number of time points [4] | number of time points [5] | number of time points [6] | number of time points [7] | number of time points [8] | number of time points [9] | number of time points [10]
24 | CN1CC[C@H](c2c(O)cc(O)c3c(=O)cc(-c4ccc(C(F)(F)F)cc4Cl)oc23)[C@H]1CO [(2S,3R)-Voruciclib (hydrochloride)] (2.5 µM) | 1 | 3 | 0 | 0 | 0 | 2 | 0 | 0 | 0 | 0
25 | CCOc1ccccc1C=C1C(=O)Nc2ccccc21 (10 µM) | 0 | 0 | 0 | 0 | 0 | 0 | 1 | 0 | 0 | 0
26 | O=c1nc(N2CCOCC2)oc2c(-c3cccc4c3sc3ccccc34)cccc12 (10 µM) | 0 | 0 | 0 | 0 | 0 | 0 | 0 | 0 | 0 | 0
27 | COc1ccc2c(=O)c(-c3ccccc3)coc2c1 [7-Methoxyisoflavone] (10 µM) | 0 | 3 | 0 | 0 | 0 | 0 | 0 | 0 | 0 | 0
28 | OCCN(CCO)c1ccc(C(c2ccc(Cl)cc2)c2ccc(N(CCO)CCO)cc2)cc1 (10 µM) | 0 | 0 | 0 | 0 | 4 | 0 | 0 | 0 | 4 | 2
29 | Cc1cc(Nc2cc(CN3CCOCC3)c3nc(C)c(Cc4ccc(Cl)cc4F)n3n2)n[nH]1 [Gandotinib] (2.5 µM) | 0 | 0 | 0 | 0 | 0 | 0 | 0 | 0 | 0 | 0
30 | Cc1ccc(-c2ncn(-c3ccc(Nc4nccc(-c5cccc(N6CCOCC6)c5)n4)cc3)n2)cn1 (10 µM) | 0 | 0 | 0 | 0 | 0 | 0 | 0 | 0 | 0 | 0
31 | O=c1[nH]ccc2cc(OC3CCNCC3)ccc12 (10 µM) | 0 | 0 | 0 | 0 | 0 | 0 | 0 | 0 | 0 | 0
32 | CC1=C(CC(=O)O)c2cc(F)ccc2/C1=C\c1ccc(C(C)C)cc1 (10 µM) | 0 | 0 | 0 | 0 | 0 | 0 | 0 | 0 | 0 | 0
33 | O=c1ccc2ccc(O)c(O)c2o1 [Daphnetin] (10 µM) | 0 | 0 | 0 | 0 | 0 | 0 | 0 | 0 | 0 | 0
34 | O=c1cc(-c2ccc(O)c(O)c2O)oc2ccccc12 (10 µM) | 0 | 0 | 0 | 0 | 0 | 0 | 0 | 0 | 0 | 0
35 | C=C[C@H]1[C@H](O[C@@H]2O[C@H](CO)[C@@H](O)[C@H](O)[C@H]2OC(=O)c2c(O)cc(O)cc2-c2cccc(O)c2)OC=C2C(=O)OCC[C@H]21 [Amarogentin] (10 µM) | 0 | 0 | 0 | 0 | 0 | 0 | 0 | 0 | 0 | 0
36 | O=C(Nc1ccc(Cl)c(Cl)c1)Nc1ccc2nnsc2c1 (10 µM) | 0 | 0 | 0 | 0 | 0 | 0 | 0 | 0 | 0 | 0
37 | Nc1[nH]c(=O)nc2c1ncn2[C@@H]1O[C@H](CO)[C@@H](O)[C@H]1O [Crotonoside] (10 µM) | 0 | 0 | 0 | 0 | 0 | 0 | 0 | 0 | 0 | 0
38 | O=C(Nc1cccc(-c2nncn2C2CC2)c1)c1cc(-n2cnc(C3CC3)c2)ccn1 (10 µM) | 0 | 0 | 0 | 0 | 0 | 0 | 0 | 0 | 0 | 0
39 | O=C(O)c1ccc(-c2c[nH]c3ncc(-c4ccccc4)cc23)cc1C1CCCC1 (2.5 µM) | 0 | 3 | 0 | 0 | 0 | 0 | 0 | 0 | 0 | 0
40 | CCCNC(=O)c1cn2ncnc(Nc3cc(C(=O)NC4CC4)ccc3C)c2c1C (10 µM) | 0 | 0 | 0 | 0 | 0 | 0 | 0 | 0 | 0 | 0
41 | CSc1ccc(CN2CCCC(Nc3ccc4[nH]ncc4c3)C2)cc1 (stereo not given) [Rho-Kinase-IN-1] (10 µM) | 0 | 0 | 0 | 0 | 0 | 0 | 0 | 0 | 0 | 0
42 | CN(C)c1nc2c(Br)c(Br)c(Br)c(Br)c2n1CC(=O)O (10 µM) | 0 | 0 | 0 | 0 | 0 | 0 | 0 | 0 | 0 | 0
43 | Cc1ccc(-c2ccc3c(ccc4sc5c(c43)NC[C@@H](C)NC5=O)n2)cn1 (10 µM) | 0 | 0 | 0 | 0 | 0 | 0 | 0 | 0 | 0 | 0
44 | O=C(NOCCO)c1ccc2cncn2c1Nc1ccc(I)cc1F (10 µM) | 0 | 0 | 0 | 0 | 2 | 0 | 0 | 0 | 1 | 0
45 | O=C(O)c1ccccc1Nc1cccc(C(F)(F)F)c1 [Flufenamic acid] (10 µM) | 0 | 0 | 0 | 0 | 0 | 0 | 0 | 0 | 0 | 0
46 | Cc1cnc(Nc2ccc(N3CCN(C)CC3)cc2)nc1Nc1cccc(S(=O)(=O)NC(C)(C)C)c1 (2.5 µM) | 0 | 0 | 0 | 0 | 0 | 1 | 0 | 0 | 0 | 0

Single records, from the list above. Order of values: number of time points [1]	number of time points [2]	number of time points [3]	number of time points [4]	number of time points [5]	number of time points [6]	number of time points [7]	number of time points [8]	number of time points [9]	number of time points [10]
`CCOC(=O)c1c2c3c(cccc3[nH]c1=O)C(=O)c1ccccc1-2` (10 µM) as listed: 0	0	0	0	0	0	0	0	0	0
`CCCC(=O)Nc1nc2c(ncn2[C@@H]2O[C@@H]3COP(=O)(O)O[C@H]3[C@H]2OC(=O)CCC)c(=O)[nH]1` [Dibutyryl-cGMP (sodium)] (10 µM) as listed: 0	0	0	0	0	0	0	0	0	0
